# Measurements reported in PubChem BioAssay AID1347076 (National Center for Advancing Translational Sciences (NCATS), 2019).
# About 13,000 (3.2%) of roughly 400,000 compounds were called active. The inconclusive results got no clear call from the source; some entries with a clear call stand among them for comparison. The call rests on the fitted dose curve; in most records, active means well fitted cell-killing curve with a large enough effect; inconclusive means small, poorly fitted or top-dose-only effect, or effect the other way; inactive means flat fitted curve, though single readings scatter. Potencies beside an inconclusive call are fits to weak or partial responses and may not hold up.
# Assay: qHTS assay for MDR1-selective chemotherapeutics: Primary screen using the drug-selected MDR subline cells KB-V1; further: nearly all actives have a fitted effect of over 60% in size
# Details: KB-V1 MDR cells viability, CellTiter-Glo, 72 h; series mostly up to 46.1 µM
# Outline: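 Cytotoxicity via CellTiter-Glo luminescence after 72 h compound exposure at 37 degrees C. Cells: drug-selected KB-V1 line, DMEM phenol-red free plus 10% FBS. Compounds tested at multiple concentrations; normalized data fitted to concentration-effect curves.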
# Potency means the concentration at half of the fitted maximal effect.
row,Compound,Potency
1,N#C/C(=C\c1cccc(Oc2ccc(C(F)(F)F)cc2[N+](=O)[O-])c1)c1nc2ccccc2[nH]1,inactive
2,CCOC(=O)c1ccccc1NC(=O)COc1ccccc1-c1nnc(-c2ccccc2)o1,"inconclusive: 16.4 µM [cytotoxic, partial curve]"
3,CCOc1ccc(N(C)S(=O)(=O)c2ccc(C)c(C(=O)NCc3ccccc3OC)c2)cc1,"inconclusive: 18.4 µM [cytotoxic, single point]"
4,CCOC(=O)C(NC(=O)c1cccc(Cl)c1)(OCc1ccc(F)cc1)C(F)(F)F (stereo unspecified),inactive
5,O=C(NCCc1nc(-c2ccccc2Cl)no1)C1CCCCC1,"inconclusive: 13 µM [cytotoxic, partial curve, poor fit]"
6,CCc1ccc(N(C(=O)c2csnn2)C(C(=O)NC2CCCCC2)c2cccnc2)cc1 (stereo unspecified),"inconclusive: 29.1 µM [cytotoxic, single point]"
7,CCOCCn1c(SCc2ccc(F)cc2)nc2c1c(=O)[nH]c(=O)n2C,inactive
8,O=C(c1ccc([N+](=O)[O-])cc1)N1CCN(Cc2ccccc2)CC1,inactive
9,COc1ccc(CNC(=O)c2ccc(NC(=O)N3CCSc4ccccc43)cc2)cc1,inactive
10,COc1ncnc2c1ncn2CCCN1CCN(Cc2cccc3ccccc23)CC1,"inconclusive: 16.4 µM [cytotoxic, partial curve]"
11,CSc1nn(Cc2cccc(C)c2)c(N)c1S(=O)(=O)c1ccccc1,"inconclusive: 23.1 µM [cytotoxic, partial curve, poor fit]"
12,COc1ccc(-c2cc(NC=O)c3ncc(-c4ccc(OC)c(OC)c4)n3c2)cc1OC,"inconclusive: 20.6 µM [cytotoxic, single point]"
13,Cc1c(Cl)cccc1NC(=O)COC(=O)c1ccc(CN2CCCC2=O)cc1,"inconclusive: 29.1 µM [rising, single point]"
14,Cc1nn(C)c(C)c1CN(Cc1nc(-c2ccc(F)cc2F)oc1C)C1CC1,"inconclusive: 29.1 µM [cytotoxic, single point]"
15,Cc1ccccc1P(=O)(c1ccccc1)c1ccccc1C,"inconclusive: 14.6 µM [cytotoxic, single point]"
16,COC(=O)CSC1=C(C#N)C(c2ccccc2)CC(=O)N1 (stereo unspecified),active: 18.4 µM
17,NC(=O)COc1ccc(Nc2nnc(-c3ccc(O)cc3)c3ccccc23)cc1,inactive
18,CCN(C(=O)CSc1nc2scc(-c3ccccc3)c2c(=O)n1N)C1CCS(=O)(=O)C1 (stereo unspecified),"inconclusive: 29.1 µM [rising, single point]"
19,C[n+]1ccc2[nH]c3ccccc3c2c1,inactive
20,C[C@H]1CCC[C@]2(O[C@@H](CCO)C[C@@H](O)[C@@H]2O)O1,"inconclusive: 25.9 µM [rising, single point]"
21,O=C(COc1cccc(Cl)c1)N/N=C\c1cc2ccccc2nc1Cl,"inconclusive: 6.51 µM [cytotoxic, full curve]"
22,C[C@H](NC(=O)OC(C)(C)C)C(=O)NCC1CCC(C(=O)N[C@@H](Cc2ccccc2)C(=O)O)CC1 (stereo partly specified),"inconclusive: 29.1 µM [rising, partial curve, poor fit]"
23,CN(C(=O)c1cccc(NC(=O)Cc2cccc(NC(=O)C3CCN(S(=O)(=O)c4cccc([N+](=O)[O-])c4)CC3)c2)c1)C1CC1,"inconclusive: 29.1 µM [rising, single point]"
24,CCOc1ccccc1NC(=O)Nc1ccc(Cl)cc1,active: 23.1 µM

row,Compound,Potency
1,CCN=c1sc(C(=O)NCCc2ccccc2)cc(=O)n1CC,"inconclusive: 29.1 µM [cytotoxic, single point]"
2,COc1ccc(-c2nc(C#N)c(NCC3CCCO3)o2)cc1 (stereo unspecified),"inconclusive: 20.6 µM [cytotoxic, single point]"
3,COC(=O)/C=C(\C)NC(=O)c1cccs1,"inconclusive: 9.2 µM [rising, partial curve, poor fit]"
4,CCCNC(=O)C1(C)CCCN(Cc2ccc(C)cc2)C1 (stereo unspecified),inactive
5,O=C(Nc1ncc(Cc2ccccc2)s1)C1COc2ccccc2O1 (stereo unspecified),"inconclusive: 20.6 µM [cytotoxic, single point]"
6,Cc1cc(C(=O)CSc2nnc3ccccn23)c(C)n1-c1ccccc1,"inconclusive: 14.6 µM [cytotoxic, partial curve]"
7,CCN(Cc1nc(-c2cccc(C)c2)no1)C(=O)c1ccc2c(c1)OCO2,"inconclusive: 16.4 µM [cytotoxic, partial curve]"
8,Cc1ccc(-n2c(CCc3ccccc3)nnc2SCC(=O)NCc2ccccc2)cc1C,"inconclusive: 20.6 µM [cytotoxic, single point]"
9,Cc1cc(C)n(-c2ncnc3sc4c(c23)CCCC4)n1,inactive
10,Cc1ccc(NC(=O)CN(C)C(=O)CNC(=O)c2sc3ccccc3c2Cl)cc1,"inconclusive: 20.6 µM [cytotoxic, single point]"
11,COc1cccc(OCCSc2nc(N)cc(N)n2)c1,"inconclusive: 29.1 µM [cytotoxic, single point]"
12,CN(C)CCNC(=O)c1ccccc1-c1ccccc1,inactive
13,CCOC(=O)N1CCN(C(=O)COc2cccc3c2CCN(Cc2ccc(F)cc2)C3=O)CC1,"inconclusive: 18.4 µM [cytotoxic, single point]"
14,Cc1ccc(S(=O)(=O)c2c(C)nn(C(C)(C)C)c2OC(=O)c2ccco2)cc1,inactive
15,CC(=O)Nc1cccc(-c2ccnc3c2CC(C)(C(=O)NCc2ccccc2)O3)c1 (stereo unspecified),active: 16.4 µM
16,CC(=O)C1(O)CCC2C3CCC4CC(=O)CCC4(C)C3C(=O)CC21C (stereo unspecified),"inconclusive: 16.4 µM [cytotoxic, single point]"
17,CCCN1CCN(c2ncnc3sc(C(=O)Nc4c(C)cc(C)cc4C)c(C)c23)CC1,"inconclusive: 18.4 µM [cytotoxic, single point]"
18,COc1ccc2nc(/N=C/c3c(C)[nH]n(-c4ccc(C)cc4)c3=O)sc2c1,active: 8.2 µM
19,O=C(NC1CCCCC1)c1ccccc1-c1ccccc1,"inconclusive: 23.1 µM [rising, single point]"
20,CC1(C)CC2(OC2c2ccccc2[N+](=O)[O-])C(=O)c2ccccc21 (stereo unspecified),"inconclusive: 29.1 µM [cytotoxic, single point]"
21,CCCCCc1nc2c(c3c1CCCC3)CCCC2,"inconclusive: 13 µM [cytotoxic, partial curve]"
22,Cc1ccc(C2C=C(c3ccccc3OC(F)F)Nc3ncnn32)cc1 (stereo unspecified),active: 20.6 µM
23,COc1ccc(S(=O)(=O)Nc2cccc(-c3ccc4nncn4n3)c2)cc1,"inconclusive: 0.82 µM [cytotoxic, single point]"
24,CCOC(=O)C(=O)Nc1nccs1,inactive

row,Compound,Potency
1,CCNS(=O)(=O)c1ccc(CCC(=O)NCc2ccccc2)cc1,inactive
2,CCn1ccnc1CN(C)Cc1cn(-c2ccc(C)cc2)nc1-c1cccc(C)c1,inactive
3,Clc1ccc(CN2C3=NCCCN3c3ccccc32)cc1Cl,"inconclusive: 29.1 µM [cytotoxic, single point]"
4,COC(=O)c1ccccc1NC(=O)C1CC(=O)N(C2CCCCC2)C1 (stereo unspecified),"inconclusive: 20.6 µM [cytotoxic, partial curve, poor fit]"
5,O=C(Cc1c(Sc2ccccc2)c2ccccc2n1Cc1ccccc1)NCCO,inactive
6,O=C(Nc1cccc(CNCCc2c[nH]c3ccccc23)c1)c1ccccc1Cl,"inconclusive: 29.1 µM [cytotoxic, single point]"
7,COc1cc(CNCc2ccccn2)ccc1OCC(=O)NC1CCCCC1,active: 20.6 µM
8,O=C(c1ccc2c(c1)OCCO2)C1CCN(C(=O)c2ccc(F)c(F)c2)CC1,active: 5.8 µM
9,O=C(N/N=C/c1ccc2cccnc2c1)c1nc2ccccc2c(=O)[nH]1,inactive
10,Cc1nnc(NC(=O)c2cccc(F)c2)s1,"inconclusive: 23.1 µM [rising, single point]"
11,Cc1ccc2oc(NC(=O)N3CCOCC3)cc(=O)c2c1,"inconclusive: 20.6 µM [cytotoxic, partial curve, poor fit]"
12,Cc1cccc(Cc2cnc(N3C(=N)SC(C)C3=O)s2)c1 (stereo unspecified),"inconclusive: 29.1 µM [cytotoxic, single point]"
13,Cc1nc2sc(C(=O)c3ccccc3)c(N)c2c(C)c1C,"inconclusive: 4.61 µM [cytotoxic, full curve]"
14,CN(C(=O)CO/N=C/c1ccc(OC(F)F)cc1)C1CCS(=O)(=O)C1 (stereo unspecified),"inconclusive: 29.1 µM [rising, single point]"
15,CCn1c2ccccc2c2cc(/C=N/NC(=O)c3ccccc3C)ccc21,active: 5.17 µM
16,O=C(Nn1c(C2CCCCC2)nc2ccccc2c1=O)c1ccc([N+](=O)[O-])cc1,"inconclusive: 16.4 µM [cytotoxic, single point]"
17,Cc1ccc(C(=O)NC(=O)CSc2nnc(C)s2)cc1,"inconclusive: 5.17 µM [rising, full curve]"
18,NC(=S)N/N=C/c1cn(-c2ccccc2)nc1-c1cccnc1,"inconclusive: 29.1 µM [cytotoxic, single point]"
19,Cc1cccc(OCCCc2c(C)n[nH]c2C)c1,active: 18.4 µM
20,CC(C)OC(=O)c1c(-c2ccccc2)c(-c2ccccc2)nn(C)c1=O,inactive
21,Cc1cc(C(=O)N2CCN(c3ncccn3)CC2)c2cc(F)ccc2n1,"inconclusive: 16.4 µM [cytotoxic, single point]"
22,Cc1cc(C)c(Cn2c(C3CC(=O)N(c4ccc(F)cc4)C3)nc3ccccc32)c(C)c1 (stereo unspecified),"inconclusive: 1.46 µM [cytotoxic, partial curve, poor fit]"
23,CC(C)CCN(C(=O)Nc1ccccc1)C(C)c1cccs1 (stereo unspecified),inactive

# Ordered by formula weight (descending): part of the list above.
row,Compound,Potency
9,O=C(N/N=C/c1ccc2cccnc2c1)c1nc2ccccc2c(=O)[nH]1,inactive
3,Clc1ccc(CN2C3=NCCCN3c3ccccc32)cc1Cl,"inconclusive: 29.1 µM [cytotoxic, single point]"
12,Cc1cccc(Cc2cnc(N3C(=N)SC(C)C3=O)s2)c1 (stereo unspecified),"inconclusive: 29.1 µM [cytotoxic, single point]"
19,Cc1cccc(OCCCc2c(C)n[nH]c2C)c1,active: 18.4 µM
